No constants are given. Whether binding was seen depends on the method and setting. Some binding calls cover weakened binding; strength is not graded here. For some assays here: Sequences can lack the tags named with a protein.
Key:
[1] = target: T1, recombinant human soluble IL6 receptor (human), P08887; experiment: SPR Biacore T100; conditions: remark: other sources report otherwise
T1 chain: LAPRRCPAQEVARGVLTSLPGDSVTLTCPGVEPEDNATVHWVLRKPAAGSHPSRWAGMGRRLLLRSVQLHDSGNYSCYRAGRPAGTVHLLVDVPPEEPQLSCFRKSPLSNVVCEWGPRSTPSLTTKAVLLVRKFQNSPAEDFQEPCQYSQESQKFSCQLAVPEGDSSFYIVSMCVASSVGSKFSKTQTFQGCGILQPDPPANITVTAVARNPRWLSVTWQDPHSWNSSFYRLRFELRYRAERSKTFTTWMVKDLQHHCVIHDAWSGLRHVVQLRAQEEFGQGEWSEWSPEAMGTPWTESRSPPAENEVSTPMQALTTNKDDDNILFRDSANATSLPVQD

sIL6R Fc dimer, P08887 = target: T2, sIL6R Fc dimer, P08887; experiment: SPR Biacore T100, binder captured by anti-human Fc, single 100 nM injection; conditions: remark: other sources report otherwise
T2 chain: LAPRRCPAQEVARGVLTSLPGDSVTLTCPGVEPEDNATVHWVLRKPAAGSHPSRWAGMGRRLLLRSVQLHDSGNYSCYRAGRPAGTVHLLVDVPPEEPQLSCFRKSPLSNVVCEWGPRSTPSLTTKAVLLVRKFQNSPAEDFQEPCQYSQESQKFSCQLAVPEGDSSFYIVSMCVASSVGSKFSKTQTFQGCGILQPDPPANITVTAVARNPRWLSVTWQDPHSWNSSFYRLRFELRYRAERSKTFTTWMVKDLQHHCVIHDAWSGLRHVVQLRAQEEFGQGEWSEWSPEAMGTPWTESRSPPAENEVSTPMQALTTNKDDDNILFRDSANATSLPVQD

B1: TRU(XT6)-1025 (Fc fusion)
chain: LPAQVAFTPYAPEPGSTCRLREYYDQTAQMCCSKCSPGQHAKVFCTKTSDTVCDSCEDSTYTQLWNWVPECLSCGSRCSSDQVETQACTREQNRICTCRPGWYCALSKQEGCRLCAPLRKCRPGFGVARPGTETSDVVCKPCAPGTFSNTTSSTDICRPHQICNVVAIPGNASMDAVCTSTSPTRSMAPGAVHLPQPVSTRSQHTQPTPEPSTAPSTSFLLPMGPSPPAEGSTGDTGEPKSSDKTHTCPPCPAPEAAGAPSVFLFPPKPKDTLMISRTPEVTCVVVDVSHEDPEVKFNWYVDGVEVHNAKTKPREEQYNSTYRVVSVLTVLHQDWLNGKAYACAVSNKALPAPIEKTISKAKGQPREPQVYTLPPSRDELTKNQVSLTCLVKGFYPSDIAVEWESNGQPENNYKTTPPVLDSDGSFFLYSKLTVDKSRWQQGNVFSCSVMHEALHNHYTQKSLSLSPGQRHNNSSLNTRTQKARHSPNSEVQLLESGGGLVQPGGSLRLSCAASGFTFSHYGMHWVRQAPGKGLEWVSSIYPGMTQYADSVKGRFTISRDNSKNTLYLQMNSLRAEDTAVYYCARDRGSGIDAFDIWGQGTMVTVSSGGGGSGGGGSGGGGSQSELTQPPSVSVSPGQTATVSCSGEKLGDRYAWWYQQKAGQSPVLVIYQDTKRPSGVPDRFSGSNSGTSASLVISGPQSEDEADYYCAAWDDSLKGVVFGGGSKLTVL
binding [1]: binds
binding (sIL6R Fc dimer, P08887): binds
